Measured values from patent publication US20090123469A1.
Results are given in words; binding and its absence hold for the method and conditions named. Some binding calls cover weakened binding; strength is not graded here.

Target: cynomolgus factor B (cynomolgus)
Assay: hybridoma screen of 400 clones; method not described

- binding: binds
B1: anti-factor B antibody 1F7 (antibody, human IgG1, V domains shown)
VH: QIQLVQSGPELKKPGETVKISCKASGYTFTNYGMNWVKQAPGKGLKWMGWIHTYTGKPTHADDFKGRFAFSLETSASTAYLQISNLKNEDMATYFCARGSLSTAMDYWGQGTTVTVSS
VL: DIVLTQSPASLAVSLGQRATISCKASQSVDYDGDNYMNWYQQTSGQPPKFLISGASNLESGIPARFSGSGSGTDFTLNIHPVEEEDAATYYCQQSNEDPWTFGGGTKLEIKR
